Measured values from patent publication EP4721767A1 (priority 2023, dated 2024).
These are yes or no findings as the source states them, for the method shown. Some results given as binding are weak or reduced against the parent protein; the word gives no strength.

T1: human B7-H3 naturally expressed on the surface of SKOV3 cells (human) (UniProt Q5ZPR3)
T1 sequence (looked up): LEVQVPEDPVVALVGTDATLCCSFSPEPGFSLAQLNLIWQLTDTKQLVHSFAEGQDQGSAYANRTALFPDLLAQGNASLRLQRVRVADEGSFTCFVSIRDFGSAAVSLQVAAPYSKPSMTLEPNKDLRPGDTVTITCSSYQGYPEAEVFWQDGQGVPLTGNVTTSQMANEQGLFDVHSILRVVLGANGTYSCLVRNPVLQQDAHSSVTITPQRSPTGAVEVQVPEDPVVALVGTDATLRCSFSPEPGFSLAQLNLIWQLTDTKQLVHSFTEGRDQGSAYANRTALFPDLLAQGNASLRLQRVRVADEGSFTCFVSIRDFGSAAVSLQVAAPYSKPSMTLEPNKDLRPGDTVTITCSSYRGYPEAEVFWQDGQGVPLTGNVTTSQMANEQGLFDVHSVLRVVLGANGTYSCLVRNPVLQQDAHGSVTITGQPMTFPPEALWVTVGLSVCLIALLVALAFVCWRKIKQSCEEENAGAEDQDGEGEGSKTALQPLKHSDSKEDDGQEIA


Target: T1, human B7-H3 naturally expressed on the surface of SKOV3 cells (human)
Assay: flow cytometry on SKOV3 cells

Binder	binding
hz10B4m1 (antibody, V domains shown, LCDR3 variant of hz10B4 (SSN→SSA); also called hz10B4-VH×hz10B4-Lm1-VL) VH: EVQLVQSGAEVKKPGASVKVSCKASGYTFTEYIMHWVRQAPGQGLEWMGGINPASGGTTYNQKFKGRVTMTRDTSISTAYMELSRLRSEDTAVYYCARKGKDYFDWYFDVWGQGTTVTVSS VL: DIQLTQSPSSLSASVGDRVTMTCSASSSVSYMHWYQQKPGKAPKLLIYDTSKLASGVPSRFSGSGSGTDFTLTISSLQPEDFATYYCQQWSSAPLTFGGGTKVEIK	binds
hz10B4m2 (antibody, V domains shown, LCDR3 variant of hz10B4 (SSN→SAS); also called hz10B4-VH×hz10B4-Lm2-VL) VH: EVQLVQSGAEVKKPGASVKVSCKASGYTFTEYIMHWVRQAPGQGLEWMGGINPASGGTTYNQKFKGRVTMTRDTSISTAYMELSRLRSEDTAVYYCARKGKDYFDWYFDVWGQGTTVTVSS VL: DIQLTQSPSSLSASVGDRVTMTCSASSSVSYMHWYQQKPGKAPKLLIYDTSKLASGVPSRFSGSGSGTDFTLTISSLQPEDFATYYCQQWSASPLTFGGGTKVEIK	binds
hz10B4m3 (antibody, V domains shown, LCDR3 variant of hz10B4 (SSN→SSQ); also called hz10B4-VH×hz10B4-Lm3-VL) VH: EVQLVQSGAEVKKPGASVKVSCKASGYTFTEYIMHWVRQAPGQGLEWMGGINPASGGTTYNQKFKGRVTMTRDTSISTAYMELSRLRSEDTAVYYCARKGKDYFDWYFDVWGQGTTVTVSS VL: DIQLTQSPSSLSASVGDRVTMTCSASSSVSYMHWYQQKPGKAPKLLIYDTSKLASGVPSRFSGSGSGTDFTLTISSLQPEDFATYYCQQWSSQPLTFGGGTKVEIK	binds
